# PubChem BioAssay AID504834 (National Center for Advancing Translational Sciences (NCATS), 2011)
# Screen size: about 320,000 compounds; about 22,000 (6.9%) were called active. The shares of active, inactive and inconclusive entries below differ from those in the screen. Calls follow the shape of the dose curve; as a rule, active = well fitted inhibition curve with a large enough effect; inconclusive = small, poorly fitted or top-dose-only effect, or another doubt; inactive = no such curve, though single readings can be large or run the other way. Potencies beside an inconclusive call are fits to weak or partial responses and may not hold up.
# Experiment: Primary qHTS for delayed death inhibitors of the malarial parasite plastid, 96 hour incubation
# Details: P. falciparum luciferase reporter growth; series mostly up to 28.7 µM; activity change, negative = inhibition: at the top concentration
# Outline: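 Cell-based qHTS: luciferase-tagged P. falciparum in erythrocytes (2% hematocrit, 0.05% parasitemia final) incubated with compounds for 96 hours, 37 C, 5% CO2; luciferase detection reagent then added and luminescence measured.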
# % is scaled to controls: 0 for no effect and ±100 for the full control effect; potency is read from the fitted curve at half-maximal effect.
SMILES,"activity change, negative = inhibition",Potency
CC(=O)Nc1cccc(C(=O)OC2CCOC2=O)c1 (configuration not stated),inactive: 2.14%,–
Cn1c(=O)c([N+](=O)[O-])c(NC2CCS(=O)(=O)C2)c2ccccc21 (configuration not stated),inactive: 26.1%,–
CN(C)CCn1c(NCc2ccc3c(c2)OCO3)nc2ccccc21,inactive: 20.6%,–
CC(=O)c1c(C)[nH]c(C(=O)OCn2nnc3ccccc3c2=O)c1C,–,"inconclusive: 2.08 µM [inhibitor, full curve, poor fit]"
CC1=C(C(=O)OCc2ccccc2)C(c2cccc([N+](=O)[O-])c2)NC(=O)N1CCCCCC(=O)O (configuration not stated),–,active: 10.4 µM
O=C(CSc1nnnn1C1CCCCC1)NCc1ccco1,–,"inconclusive: 13.1 µM [inhibitor, single point]"
CCCc1cc(=O)oc2c(C)c(OCC(=O)NC3CCN(Cc4ccccc4)CC3)ccc12,–,active: 13.1 µM
C=CCOc1ccc(/C(O)=C2/C(=O)C(=O)N(CCCn3ccnc3)C2c2cccs2)cc1 (configuration not stated),–,"inconclusive: 8.28 µM [inhibitor, single point]"
CCN(C(=O)C(C)Sc1ccc(S(=O)(=O)N2CCOCC2)cn1)c1ccccc1 (configuration not stated),–,"inconclusive: 11.7 µM [inhibitor, partial curve, poor fit]"
CC/C(=N\NC(=S)Nc1cccc(C)c1)c1ccccc1,–,"inconclusive: 10.4 µM [inhibitor, partial curve, poor fit]"
CCOC(=O)C1(Cc2cccc(OC)c2)CCN(C2CCOCC2)CC1,–,"inconclusive: 18.5 µM [inhibitor, single point]"
CCNc1nc(C)cc(COC)c1C#N,inactive: -0.588% [at 5.75 µM],–
CCN(C(=S)NCc1ccccc1)c1cccc2ccccc12,–,"inconclusive: 16.5 µM [inhibitor, single point]"
CCc1cc2ccc(OC)cc2nc1SCC(=O)Nc1cc(C)on1,–,"inconclusive: 18.5 µM [inhibitor, single point]"
COc1ccc(NC(=O)CCN2C(=O)c3ccccc3S2(=O)=O)cc1,inactive: 2.83%,–
COC(=O)c1ccccc1NC(=O)c1sc(Cl)nc1C,inactive: -7.42%,–
O=C(O)c1cnc(-c2ccccc2)nc1Oc1ccccc1,inactive: 27%,–
CC(C)(C)N1CC(c2nc3ccccc3n2Cc2ccc(F)cc2)CC1=O (configuration not stated),–,"inconclusive: 10.4 µM [inhibitor, single point]"
CCC1OC(=O)C(C)[C@@H](O[C@H]2C[C@@](C)(OC)C(O)C(C)O2)C(C)[C@@H](O[C@@H]2OC(C)CC(N(C)C)C2O)[C@@](C)(O)CC(C)C(=O)[C@@H](C)C(O)[C@]1(C)O (some centres not stated),–,"inconclusive: 19 µM [inhibitor, single point]"
COc1cc(NC(=O)c2ccc(N)nc2)cc(C(=O)Nc2cccc(C(F)(F)F)c2)c1,–,active: 0.738 µM
O=C(N/N=C/C(Br)=C/c1ccccc1)C1CC1,–,active: 9.28 µM
Cc1ccn2c(=O)c(C(=O)NC3CCCCC3C)c(O)nc2c1 (configuration not stated),–,"inconclusive: 11.7 µM [inhibitor, partial curve]"
COc1ccc(-c2n[nH]c(=S)n2-c2ccc(C)cc2)cc1OC,–,"inconclusive: 8.28 µM [inhibitor, partial curve, poor fit]"
COc1ccccc1Cn1c(=S)[nH]c2cc(C(=O)NCC3CCCO3)ccc2c1=O (configuration not stated),–,"inconclusive: 10.4 µM [inhibitor, partial curve, poor fit]"

SMILES,"activity change, negative = inhibition",Potency
Cc1ccc(O)c(NC(=O)c2ccc3c(c2)C(=O)N(CC(C)C)C3=O)c1,–,"inconclusive: 9.28 µM [inhibitor, partial curve, poor fit]"
O=C(N=C1SCC(=O)N1c1ccccc1Cl)c1ccco1,inactive: 213%,–
CC1CCC(=NNC(=O)Cc2ccccc2)CC1 (configuration not stated),–,"inconclusive: 3.7 µM [inhibitor, partial curve, poor fit]"
CCOc1ccc(C(CC(=O)O)NC(=O)C(c2ccccc2)c2ccccc2)cc1OC (configuration not stated),inactive: -21.1%,–
O=C(NCc1ccccc1F)c1cccc(S(=O)(=O)N2CCCCCC2)c1,–,"inconclusive: 16.5 µM [inhibitor, single point]"
NNc1nc(-c2ccccc2Cl)nc2sc3c(c12)CCCC3,–,"inconclusive: 18.5 µM [inhibitor, single point]"
S=C(NCc1ccccc1)Nc1ccc(Oc2ccccc2)cc1,–,"inconclusive: 18.5 µM [inhibitor, single point]"
Cc1cc(Cl)ccc1NC(=S)NCc1ccc(F)cc1,–,"inconclusive: 18.5 µM [inhibitor, single point]"
CCc1ccc(C(=O)COc2ccc(NC(C)=O)cc2)cc1,inactive: -25.5%,–
COc1ccc(CCc2nnc(CCC(=O)NCc3cnc4ccccn34)o2)cc1,–,active: 10.4 µM
CCn1c(O)c(/C=N/N=C2CCCC2)c2ccc(C3=NNC(=O)CC3)cc21,–,"inconclusive: 18.5 µM [inhibitor, single point]"
CCOc1ccc(NC(=O)Nc2nc(SCC)ns2)cc1,–,active: 4.15 µM
O=C(c1ccco1)N(Cc1ccc(Cl)cc1)C1CCS(=O)(=O)C1 (configuration not stated),–,"inconclusive: 14.7 µM [inhibitor, partial curve, poor fit]"
O=C(COc1ccccc1F)N1N=C(c2cccs2)CC1c1ccco1 (configuration not stated),–,"inconclusive: 10.4 µM [inhibitor, single point]"
NC(=O)C1CCN(C(=O)c2ccc(Oc3cc(Cl)cc(Cl)c3)o2)CC1,–,"inconclusive: 18.5 µM [inhibitor, single point]"
CCOc1ccc2[nH]c(=O)c(CN(Cc3ccco3)Cc3nnnn3Cc3ccccc3)cc2c1,inactive: -17.3%,–
COc1ccc(NC(=O)CSc2nnc(-c3ccco3)n2C)cc1,–,active: 6.57 µM
O=C(CCN1C(=O)c2ccccc2C1=O)OCN1C(=O)c2ccccc2C1=O,inactive: -9.01%,–
O=C1c2ccccc2C(Nc2ccc(F)c(Cl)c2)N1Cc1ccco1 (configuration not stated),inactive: -27.9%,–
Cc1sc(NC(=O)CN(Cc2ccc(F)cc2)C(=O)C(C)(C)C)c(C(N)=O)c1C,–,active: 7.38 µM
CC(=O)c1cccc(NC(=O)CC2SC(N3CCCCC3)=NC2=O)c1 (configuration not stated),–,"inconclusive: 16.5 µM [inhibitor, single point]"
COc1ccc(CNC(=O)c2cccc(N(C)C)c2)cc1,–,active: 1.85 µM
Nc1nnc(SCc2ccc(F)cc2)s1,–,"inconclusive: 0.37 µM [inhibitor, partial curve, poor fit]"
N#Cc1c(N)nc(SCC(=O)OCc2ccccc2)c(C#N)c1-c1ccco1,–,active: 4.15 µM

SMILES,"activity change, negative = inhibition",Potency
C#CCOCCOCCOCCNc1nc(N2CCN(C(=O)CCCCCCCCCCNC(=O)Cn3cc(C[C@@H](C)O)nn3)CC2)nc(N2CCN(C(=O)CCCCCCCCCCNC(=O)Cn3cc(C[C@@H](C)O)nn3)CC2)n1,–,active: 0.0828 µM
O=C(CS(=O)(=O)Cc1ccccc1)Nc1ncccn1,inactive: 7.43%,–
C=CCN1C(=O)/C(=C/c2cc(C)n(-c3cccnc3)c2C)C(=O)NC1=S,inactive: 22.9%,–
Cc1cccc2cc(CN(CC3CCCO3)C(c3nnnn3Cc3ccco3)C(C)C)c(=O)[nH]c12 (configuration not stated),–,"inconclusive: 10.4 µM [inhibitor, single point]"
CCc1cc(C(=O)NNC(=S)NCC2CCCO2)cs1 (configuration not stated),inactive: 0%,–
CCOC(=O)CN1C(c2ccc(O)cc2)Nc2ccc(Br)cc2C1c1ccccc1 (configuration not stated),–,active: 3.29 µM
CC(C)CCn1c(N)c(C(=O)NCc2cccs2)c2nc3ccccc3nc21,–,"inconclusive: 0.415 µM [inhibitor, full curve]"
COc1ccc(CCNC(=O)C(=O)NCc2ccc(C(C)C)cc2)cc1OC,–,"inconclusive: 0.0586 µM [inhibitor, full curve, poor fit]"
CCN(CC)c1nc(C#N)cc(-c2ccc(OC)cc2)n1,–,active: 7.38 µM
O=C(Nc1nc2ccccc2[nH]1)C1CCCO1 (configuration not stated),inactive: 15.1%,–
O=C1CCCC(=O)C1=C1SCCS1,inactive: -29.3%,–
COc1ccc(-c2c(C#Cc3ccsc3)c3cc(-c4ccc(OC)nc4)ccc3n2C)cc1,–,"inconclusive: 2.33 µM [inhibitor, partial curve]"
O=C(CCC(=O)N1CCOc2ccccc21)NCCN1CCOCC1,inactive: -26.5%,–
Cc1ccc(NC(=O)CNc2cccc(S(=O)(=O)N3CCOCC3)c2)cc1F,–,active: 6.57 µM
O=C1CCCN1c1ccc(C(=O)N(Cc2nnc(-c3ccccc3Cl)o2)C2CC2)cc1,–,"inconclusive: 18.5 µM [inhibitor, single point]"
CCN(Cc1ccccc1)Cc1nc(CCc2ccccc2)no1,inactive: -3.61%,–
CCOC(=O)C1C(c2ccc3c(c2)OCO3)NC(=O)NC1(O)C(F)(F)F (configuration not stated),–,"inconclusive: 3.7 µM [inhibitor, full curve]"
Cn1nc(-c2ccccc2)c2ncc(C(F)(F)F)cc21,inactive: 4.42%,–
CC(=O)N1N=C(c2c(-c3ccccc3)c3cc(C)ccc3[nH]c2=O)CC1c1ccco1 (configuration not stated),–,active: 5.22 µM
CCOc1cc2c3c(c1)C1(C(=O)N3C(C)(C)CC2C)C(C#N)=C(N)N2C(=C1C#N)Nc1ccccc12 (configuration not stated),–,"inconclusive: 9.28 µM [inhibitor, partial curve, poor fit]"
O=S(=O)(c1cc(C(F)(F)F)ccc1Cl)N1CCCCCC1,–,"inconclusive: 18.5 µM [inhibitor, single point]"
O=[N+]([O-])c1ccc(CS(=O)(=O)N2CCN(c3ccccc3)CC2)cc1,–,"inconclusive: 18.5 µM [inhibitor, single point]"
O=C(NCc1cccs1)C1CCCN(S(=O)(=O)c2ccc3c(c2)OCO3)C1 (configuration not stated),–,"inconclusive: 11.7 µM [inhibitor, single point]"

# Reprinted at random: 2 records from the list.
SMILES,"activity change, negative = inhibition",Potency
CC(C)(C)N1CC(c2nc3ccccc3n2Cc2ccc(F)cc2)CC1=O (configuration not stated),–,"inconclusive: 10.4 µM [inhibitor, single point]"
O=C(NCc1cccs1)C1CCCN(S(=O)(=O)c2ccc3c(c2)OCO3)C1 (configuration not stated),–,"inconclusive: 11.7 µM [inhibitor, single point]"
